The target in series [1] is Oct4 (Mus musculus (ZHBTc4 ES cells)) (UniProt P20263). In words: EMSA. As to conditions: Z- extract, 40 ug whole ES cell extract, 32P ds oligonucleotide, native 4% polyacrylamide gel, pH and temperature not stated (refers to Rallu 1997), protein in an extract, label: 32P.
Series [2] has as its target T1, Nanog (Mus musculus (RCNβH ES cells)) (UniProt Q80Z64).
T1 sequence (looked up, limits assumed): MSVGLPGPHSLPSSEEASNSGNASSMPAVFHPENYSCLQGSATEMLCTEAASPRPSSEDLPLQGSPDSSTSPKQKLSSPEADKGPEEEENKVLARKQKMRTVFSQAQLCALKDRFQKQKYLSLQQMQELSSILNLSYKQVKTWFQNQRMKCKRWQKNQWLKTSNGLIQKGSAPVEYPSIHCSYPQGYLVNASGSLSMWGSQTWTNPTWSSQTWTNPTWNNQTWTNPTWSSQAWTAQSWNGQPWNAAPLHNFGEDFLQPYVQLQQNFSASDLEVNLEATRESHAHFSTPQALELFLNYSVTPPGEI
In words: EMSA. As to conditions: R- extract, also no shift with R+ extract; 40 ug whole ES cell extract, 32P ds oligonucleotide, native 4% polyacrylamide gel; pH and temperature not stated (refers to Rallu 1997); protein in an extract; label: 32P. (In general: A gel shift assay detects complexes by their altered migration in electrophoresis.)

By UniProt entry, the sequences of proteins in these tests, tags left out.
UniProt P20263, whole entry: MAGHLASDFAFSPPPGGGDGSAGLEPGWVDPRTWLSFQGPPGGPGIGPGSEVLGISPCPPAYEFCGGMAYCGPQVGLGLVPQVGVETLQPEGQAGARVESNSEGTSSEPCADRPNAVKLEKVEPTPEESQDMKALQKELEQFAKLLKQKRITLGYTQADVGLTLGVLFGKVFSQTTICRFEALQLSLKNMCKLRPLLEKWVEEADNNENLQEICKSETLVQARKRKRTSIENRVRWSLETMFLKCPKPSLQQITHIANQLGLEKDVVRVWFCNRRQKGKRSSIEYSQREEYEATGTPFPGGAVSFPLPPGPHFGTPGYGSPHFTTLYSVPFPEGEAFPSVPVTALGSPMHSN

For at least one entry, the source does not settle the construct or the ends of the probe. Where cells or extracts were used, other partners may take part. A negative result means that nothing was seen under these conditions. For part of these data: At least one verdict rests on a figure or table, not on a statement of the authors. For part of these data: Tags and fusion partners may be left off the protein sequences shown.

Turning to “TGGGGGCGGACTTTGGGACAGGAATTTAGCGTTCTTTAAAGGTAATTTCT (double strand) [Oct4 MUT]”, the binding result in series [1] is listed as “no binding”.

Turning to “TAGGACCCAGGGGCTGTAGGCCTCTGGGGA (double strand) [Nanog MUT]”, the binding result in series [2] is reported as “no binding”. Regarding “TGGGGGCGGACTTTGGGACAGGAATTTACATTTCTTTAAAGGTAATTTCT (double strand) [Oct4 WT]”, the binding result in series [1] (no shift with Oct4-depleted Z+ extract, Oct4 antibody destabilizes complex) is reported as “binds”.

(Values after publication PMC4068991.)
